At least one structure is not confirmed: it was looked up by name or label, or the drawing left a doubt.
How the values were obtained:
[1] = tested on: Lipid Peroxidation (brain homogenate auto-oxidation); assay: Brain homogenate auto-oxidation test (lipid peroxide production inhibition, thiobarbituric acid method); type: biochemical
Excerpt: [formula] Moreover, f: Purity of reference standard (%)/100 6) Brain Homogenate Auto-oxidation Test
Determined via a thiobarbituric acid method that was based on the method of Ohkawa, et al. (Reference Document 2)

[2] = 1,1-Diphenyl-2-picrylhydrazyl (DPPH) radical scavenging test
Excerpt: 7) 1,1-Diphenyl-2-picrylhydrazyl (DPPH) Radical Scavenging Test
Determined based on the method of Blois, et al. (Reference Document 3)

In the case of `O=c1c(O[C@@H]2O[C@H](CO)[C@@H](O)[C@H](O)[C@H]2O)c(-c2ccc(O)c(O)c2)oc2cc(O)cc(O)c12` [isoquercitrin], the “Inhibitory Activities on Lipid Peroxidation IC50” value [1] is reported as 6.64 µg/mL, the IC50 ([1]; value in parentheses, read-out: Inhibitory Activities on Lipid Peroxidation IC50) is reported as 14.3 µM and the “DPPH Radical Scavenging Activities EC50” value [2] is reported as 1.53 µg/mL. It also gave an EC50 ([2]; value in parentheses, read-out: DPPH Radical Scavenging Activities EC50) of 3.3 µM.

Reference: patent US8372890B2, “Functional food containing sodium tricaffeoylaldarate” (Zenyaku Kogyo Kabushikikaisha, priority 2006, dated 2013)
